Experimental data as given in patent publication US10844027B2, “Carboxylic diarylthiazepineamines as mu-opioid receptor agonists” (THE TRUSTEES OF COLUMBIA UNIVERSITY IN THE CITY OF NEW YORK, priority 2015, dated 2020).

Test: Brain pharmacokinetics of tianeptine and its 5-carbon metabolite (7i) in mice
Procedure: Brain samples were collected from three mice at 0.08, 0.25, 0.5, 1, 2, 4, 8 and 24 h, homogenized using ice-cold phosphate buffer saline (pH 7.4), and stored below −70° C. until analysis. Total homogenate volume was three times the tissue weight. All samples were processed for analysis by protein precipitation using acetonitrile (ACN) and analyzed with a fit-for-purpose LC/MS/MS method (LLOQ—1.01 ng/mL in brain). Pharmacokinetic parameters were calculated using the non-compartmental analysis tool of Phoenix WinNonlin® (Version 6.3).

[1] = male, C57BL/6, mouse, in vivo, ip, 30 mg/kg

CN1c2ccccc2C(NCCCCCCC(=O)O)c2ccc(Cl)cc2S1(=O)=O (stereo not drawn) [Tianeptine, tianeptine, reference compound]
AUClast (brain, C57BL/6 mice, single injection (30 mg/kg, i.p.) of tianeptine): 351 ng·h/g | Cmax [1]: 1020 ng/g | Tmax [1]: 4.8 min
